Results: publication doi:10.1101/2020.12.02.409078

Sequences of proteins named here, by UniProt entry; tags and fusion partners are left off.
UniProt Q63844: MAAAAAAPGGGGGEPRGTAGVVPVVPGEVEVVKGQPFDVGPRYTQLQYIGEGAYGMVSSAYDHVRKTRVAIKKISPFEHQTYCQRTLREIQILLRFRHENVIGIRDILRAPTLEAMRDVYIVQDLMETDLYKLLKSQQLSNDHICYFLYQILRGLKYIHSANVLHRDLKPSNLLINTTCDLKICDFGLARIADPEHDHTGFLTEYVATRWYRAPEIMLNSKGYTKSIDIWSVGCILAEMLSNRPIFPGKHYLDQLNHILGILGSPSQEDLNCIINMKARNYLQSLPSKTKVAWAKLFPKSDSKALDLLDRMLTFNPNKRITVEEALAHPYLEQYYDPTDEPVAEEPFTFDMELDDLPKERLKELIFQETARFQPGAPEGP
UniProt Q62433: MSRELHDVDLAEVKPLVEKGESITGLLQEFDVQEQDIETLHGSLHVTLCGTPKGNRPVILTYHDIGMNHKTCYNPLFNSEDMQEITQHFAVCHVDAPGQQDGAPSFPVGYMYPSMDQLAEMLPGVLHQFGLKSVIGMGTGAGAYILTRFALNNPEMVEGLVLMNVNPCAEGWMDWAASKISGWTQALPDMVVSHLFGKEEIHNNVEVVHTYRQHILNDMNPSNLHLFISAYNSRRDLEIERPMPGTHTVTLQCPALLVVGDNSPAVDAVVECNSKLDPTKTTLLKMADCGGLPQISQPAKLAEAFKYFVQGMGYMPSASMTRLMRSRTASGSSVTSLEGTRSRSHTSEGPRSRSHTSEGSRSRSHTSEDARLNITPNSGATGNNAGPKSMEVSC
UniProt Q02248: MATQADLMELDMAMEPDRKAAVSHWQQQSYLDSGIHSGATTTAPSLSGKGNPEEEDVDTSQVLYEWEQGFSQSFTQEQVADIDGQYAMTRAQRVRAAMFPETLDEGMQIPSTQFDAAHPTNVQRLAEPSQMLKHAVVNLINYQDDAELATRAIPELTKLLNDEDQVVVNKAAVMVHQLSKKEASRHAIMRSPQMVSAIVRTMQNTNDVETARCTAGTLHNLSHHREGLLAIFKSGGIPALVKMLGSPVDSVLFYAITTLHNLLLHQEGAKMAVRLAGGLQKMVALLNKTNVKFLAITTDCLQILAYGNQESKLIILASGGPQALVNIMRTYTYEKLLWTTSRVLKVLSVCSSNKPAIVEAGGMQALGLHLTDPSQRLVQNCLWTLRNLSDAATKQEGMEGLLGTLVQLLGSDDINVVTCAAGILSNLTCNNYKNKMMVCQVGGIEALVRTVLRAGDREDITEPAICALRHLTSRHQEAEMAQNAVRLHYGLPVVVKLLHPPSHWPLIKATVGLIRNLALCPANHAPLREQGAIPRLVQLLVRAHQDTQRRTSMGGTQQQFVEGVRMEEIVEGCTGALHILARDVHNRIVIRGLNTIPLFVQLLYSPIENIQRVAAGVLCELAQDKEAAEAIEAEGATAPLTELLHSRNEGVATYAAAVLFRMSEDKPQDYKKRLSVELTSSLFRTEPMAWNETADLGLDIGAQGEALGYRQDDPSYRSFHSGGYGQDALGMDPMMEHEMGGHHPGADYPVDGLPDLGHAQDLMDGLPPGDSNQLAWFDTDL
UniProt O35343: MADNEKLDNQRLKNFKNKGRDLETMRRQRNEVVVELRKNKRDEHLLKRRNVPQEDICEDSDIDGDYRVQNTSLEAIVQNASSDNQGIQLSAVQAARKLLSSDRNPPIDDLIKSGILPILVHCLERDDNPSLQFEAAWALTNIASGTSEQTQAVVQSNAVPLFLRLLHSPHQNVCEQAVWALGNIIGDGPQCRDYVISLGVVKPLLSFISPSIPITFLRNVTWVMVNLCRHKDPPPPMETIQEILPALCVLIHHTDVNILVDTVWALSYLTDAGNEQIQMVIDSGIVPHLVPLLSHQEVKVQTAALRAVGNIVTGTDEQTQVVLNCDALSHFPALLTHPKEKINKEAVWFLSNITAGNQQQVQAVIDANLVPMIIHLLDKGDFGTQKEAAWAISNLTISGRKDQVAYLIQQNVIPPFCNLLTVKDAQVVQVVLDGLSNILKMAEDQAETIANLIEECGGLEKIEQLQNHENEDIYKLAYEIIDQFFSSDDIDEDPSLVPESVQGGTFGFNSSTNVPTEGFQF
UniProt O35344: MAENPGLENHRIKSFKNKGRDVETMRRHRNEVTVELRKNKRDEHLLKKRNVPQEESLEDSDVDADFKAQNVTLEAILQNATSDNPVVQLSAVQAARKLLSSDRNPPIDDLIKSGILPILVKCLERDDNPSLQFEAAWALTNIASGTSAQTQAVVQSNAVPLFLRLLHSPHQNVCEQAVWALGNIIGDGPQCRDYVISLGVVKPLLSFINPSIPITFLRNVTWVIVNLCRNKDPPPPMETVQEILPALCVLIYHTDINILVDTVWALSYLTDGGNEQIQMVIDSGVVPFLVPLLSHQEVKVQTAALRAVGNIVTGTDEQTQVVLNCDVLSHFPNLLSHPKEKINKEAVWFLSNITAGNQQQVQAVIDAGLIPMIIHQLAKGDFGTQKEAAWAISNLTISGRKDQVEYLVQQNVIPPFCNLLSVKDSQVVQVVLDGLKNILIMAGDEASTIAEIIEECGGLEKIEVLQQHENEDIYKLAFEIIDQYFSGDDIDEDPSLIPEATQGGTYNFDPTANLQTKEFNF
UniProt P63101: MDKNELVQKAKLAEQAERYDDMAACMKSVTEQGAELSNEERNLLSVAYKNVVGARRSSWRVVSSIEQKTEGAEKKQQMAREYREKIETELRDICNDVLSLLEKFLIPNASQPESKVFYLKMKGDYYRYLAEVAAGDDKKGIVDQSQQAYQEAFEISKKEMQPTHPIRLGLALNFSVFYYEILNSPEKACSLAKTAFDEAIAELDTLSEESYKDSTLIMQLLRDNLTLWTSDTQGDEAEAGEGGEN

Target: importin-β1 (mouse (endogenous in forebrain synaptosomes)) (UniProt P70168)
Test: affinity purification with mass spectrometry

## ERK1 (from UniProt Q63844 1-380)
  binding: binds

## N-myc downstream regulated gene1 (NDRG1) (from UniProt Q62433 1-394)
  binding: binds

## CDK5 (from UniProt P49615 1-292)
  binding: binds

## β-catenin (from UniProt Q02248 1-781)
  binding: binds

## Imp-α4 (from UniProt O35343 1-521)
  binding: binds

## Imp-α6 (from UniProt O35345 1-536)
  binding: binds

## Imp-α3 (from UniProt O35344 1-521)
  binding: binds

## Ywhaz (from UniProt P63101 1-245)
  binding: binds

## HNRP K (from UniProt P61979 1-463)
  binding: binds

B1: AIDA (protein, UniProt Q8BIZ1 1-1259)
chain: MGKDQELLEAARTGNVALVEKLLSGRKGGILGGGSGPLPLSNLLSIWRGPNVNCTDSSGYTALHHAALNGHKDIVLKLLQYEASTNVADNKGYFPIHLAAWKGDVEIVKILIHHGPSHSRVNEQNNENETALHCAAQYGHSEVVAVLLEELTDPTIRNSKLETPLDLAALYGRLRVVKMIISAHPNLMSCNTRKHTPLHLAARNGHKAVVQVLLEAGMDVSCQTEKGSALHEAALFGKVDVVRVLLETGIDANIKDSLGRTVLDILKEHPSQKSLQIATLLQDYLEGAGRSAAVLEEHAQEDTAQETHLSSPAESPQKTKSETVTGELSKLLDEIKLCQEKDYSFEDLCHTISDHYLDNLSKISEEELGKNGSQSVRTSSTINLSPGEVEDEEEDPNSCGPTGLWEALTPCNGCRNLGFPMLAQESYPKKRNFPMEMEPSASLDTFPSENENFLCELVDTAVTKKPCSLEIARAPSPRTDNASEVAITAPGTSHHRNSSTGPTPDCSPPSPDTALKNIVKVIRPQPKQRTSIVSSLDFQRMNHNQEYFEISTSTGCTSFTSSPAASPPTSSVETTEVKNEGAEHADDLSQQEDDEPPKEYDAGQFAGLLHGSSPACESPENPFHLYGKRNTCEDGPDEASLANSPLPFKQTPIENNPEPSVKKVKPKVVSRTIFHKRNHQLENHTIVGTRMSRSGSRNGDQWGVNPGGFVERACTLGRIRSLPKALIDMHLSKNVSKSDSDLIAYPSKDKARVNWSKSSTAERSSKDNSERTPSFTSEWEEIDKIMNSIDVGINSELEGMNGETTRPRCPVQTVGQWLESIGLPQYENHLMANGFDSVQFMGSNVMEDQDLLEIGILNSGHRQRILQAIQLLPKMRPIGHDGYHPTSVAEWLDSIELGDYTKAFLINGYTSMDLLKKIWELELINVLKISLIGHRKRILASLGDRLHDDPPQKPPRSITLREPSGNHTPPQLSPSLSQSTYTTGGSLDVPHIIMQGDARRRRNENYFDDIPRSKLERQMAQTGDWGEPSITLRPPNEATASTPVQYWQHHPEKLIFQSCDYKAFYLGSMLIKELRGTESTQDACAKMRANCRKSTEQMKKVPTIILSVSYKGVKFIDAANKNIIAEHEIRNISCAAQDPEDLSTFAYITKDLKSNHHYCHVFTAFDVNLAYEIILTLGQAFEVAYQLALQARKGGHSSTLPESFENKPSKPIPKPRVSIRKSVQIDPSEQKTLANLPWIVEPGQEAKRGINTKYETTIF
  binding: binds

B2: Adducin-1 (protein, UniProt Q9QYC0 1-735)
chain: MNGDTRAAVVTSPPPTTAPHKERYFDRVDENNPEYLRERNMAPDLRQDFNMMEQKKRVSMILQSPAFCEELESMIQEQFKKGKNPTGLLALQQIADFMTASVPNVYPAAPQGGMAALNMSLGMVTPVNDLRGSDSIAYDKGEKLLRCKLAAFYRLADLFGWSQLIYNHITTRVNSEQEHFLIVPFGLLYSEVTASSLVKVNLQGDIVDRGSTNLGVNQAGFTLHSAVYAARPDAKCIVHIHTPAGAAVSAMKCGLLPISPEALSLGDVAYHDYHGILVDEEEKILIQKNLGPKSKVLILRNHGLVSVGESVEEAFYYIHNLVVACEIQVRTLASAGGPDNLVLLDPGKYKAKSRSPGTPAGEGSGSPPKWQIGEQEFEALMRMLDNLGYRTGYPYRYPALRERSKKYSDVEVPASVTGHSFASDGDSGTCSPLRHSFQKQQREKTRWLHSGRGDDASEEGQNGSSPKSKTKWTKEDGHRTSTSAVPNLFVPLNTNPKEVQEMRNKIREQNLQDIKTAGPQSQVLCGVMMDRSLVQGELVTASKAIIEKEYQPHVIVSTTGPNPFNTLTDRELEEYRREVERKQKGSEENLDETREQKEKSPPDQSAVPNTPPSTPVKLEEDLPQEPTSRDDSDATTFKPTPPDLSPDEPSEALAFPAVEEEAHASPDPTQPPAEADPEPASAPTPGAEEVASPATEEGSPMDPGSDGSPGKSPSKKKKKFRTPSFLKKSKKKSDS
  binding: binds

B3: CASK (protein, UniProt O70589 1-926)
chain: MADDDVLFEDVYELCEVIGKGPFSVVRRCINRETGQQFAVKIVDVAKFTSSPGLSTEDLKREASICHMLKHPHIVELLETYSSDGMLYMVFEFMDGADLCFEIVKRADAGFVYSEAVASHYMRQILEALRYCHDNNIIHRDVKPHCVLLASKENSAPVKLGGFGVAIQLGESGLVAGGRVGTPHFMAPEVVKREPYGKPVDVWGCGVILFILLSGCLPFYGTKERLFEGIIKGKYKMNPRQWSHISESAKDLVRRMLMLDPAERITVYEALNHPWLKERDRYAYKIHLPETVEQLRKFNARRKLKGAVLAAVSSHKFNSFYGDPPEELPDFSEDPTSSGLLAAERAVSQVLDSLEEIHALTDCSEKDLDFLHSVFQDQHLHTLLDLYDKINTKSSPQIRNPPSDAVQRAKEVLEEISCYPENNDAKELKRILTQPHFMALLQTHDVVAHEVYSDEALRVTPPPTSPYLNGDSPESANGDMDMENVTRVRLVQFQKNTDEPMGITLKMNELNHCIVARIMHGGMIHRQGTLHVGDEIREINGISVANQTVEQLQKMLREMRGSITFKIVPSYRTQSSSCERDSPSTSRQSPANGHSSTNNSVSDLPSTTQPKGRQIYVRAQFEYDPAKDDLIPCKEAGIRFRVGDIIQIISKDDHNWWQGKLENSKNGTAGLIPSPELQEWRVACIAMEKTKQEQQASCTWFGKKKKQYKDKYLAKHNAVFDQLDLVTYEEVVKLPAFKRKTLVLLGAHGVGRRHIKNTLITKHPDRFAYPIPHTTRPPKKDEENGKNYYFVSHDQMMQDISNNEYLEYGSHEDAMYGTKLETIRKIHEQGLIAILDVEPQALKVLRTAEFAPFVVFIAAPTITPGLNEDESLQRLQKESDVLQRTYAHYFDLTIINNEIDETIRHLEEAVELVCTAPQWVPVSWVY
  binding: binds

Results are given in words; binding and its absence hold for the method and conditions named. In cells and extracts the contact can be indirect. A yes stands for co-enrichment or nearness to the bait. Other partners may have been found.
